Here are results for 2 molecules from publication PMC12796736.

By UniProt entry, the sequences of proteins in these tests, tags left out.
UniProt P18872: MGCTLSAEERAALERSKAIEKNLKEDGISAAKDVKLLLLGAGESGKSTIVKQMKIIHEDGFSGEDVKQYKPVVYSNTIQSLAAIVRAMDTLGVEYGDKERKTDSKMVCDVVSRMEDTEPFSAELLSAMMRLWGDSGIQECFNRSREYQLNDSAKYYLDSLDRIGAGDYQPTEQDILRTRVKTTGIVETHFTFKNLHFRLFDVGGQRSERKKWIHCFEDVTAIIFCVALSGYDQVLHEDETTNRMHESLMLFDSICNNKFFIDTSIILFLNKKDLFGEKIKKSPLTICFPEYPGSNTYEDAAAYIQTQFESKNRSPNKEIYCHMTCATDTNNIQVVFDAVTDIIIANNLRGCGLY

These are yes or no findings as the source states them, for the method shown. In cells and extracts the contact can be indirect. These calls come from enrichment with a bait or labelling near it, and not all partners need be listed.

The target in assay [1] is G⍺o, alpha subunit of the heterotrimeric G protein Go (native, mouse brain) (mouse (endogenous in mouse brain)) (UniProt P18872). Put plainly: affinity purification with mass spectrometry; G⍺o immunopurified (sc-13532) from GDP-pretreated mouse brain lysate, three independent lysates; LC-MS/MS; enrichment against G⍺o-GTPγS samples and control antibody samples.
Assay [2] has the same target. The assay can be described thus: affinity purification with mass spectrometry; G⍺o immunopurified (sc-13532) from GTPγS-pretreated mouse brain lysate, three independent lysates; LC-MS/MS; enrichment against G⍺o-GDP samples and isotype-matched control antibody samples.

B1: resistance to inhibitors of cholinesterase 8A (protein, UniProt Q3TIR3 1-530)
chain: MEPRAVADALETGEEDAVTEALRSFNREHSQSFTFDDAQQEDRKRLAKLLVSVLEQGLSPKHRVTWLQTIRILSRDRSCLDSFASRQSLHALACYADITVSEEPIPQSPDMDVLLESLKCLCNLVLSSPTAQMLAAEARLVVRLAERVGLYRKRSYPHEVQFFDLRLLFLLTALRTDVRQQLFQELHGVRLLTDALELTLGVAPKENPPVMLPAQETERAMEILKVLFNITFDSVKREVDEEDAALYRYLGTLLRHCVMVEAAGDRTEEFHGHTVNLLGNLPLKCLDVLLALELHEGSLEFMGVNMDVISALLAFLEKRLHQTHRLKECVAPVLNVLTECARMHRPARKFLKAQVLPPLRDVRTRPEVGDLLRNKLVRLMTHLDTDVKRVAAEFLFVLCSESVPRFIKYTGYGNAAGLLAARGLMAGGRPEGQYSEDEDTDTEEYREAKASINPVTGRVEEKPPNPMEGMTEEQKEHEAMKLVNMFDKLSRHRVIQPMGMSPRGHLTSLQDAMCETMEGQLSSDPDSDPD
In the case of B1, in assay [1], the binding result is “binds”.

B2: RGS7 (protein, UniProt O54829 1-469)
chain: MAQGNNYGQTSNGVADESPNMLVYRKMEDVIARMQDEKNGIPIRTVKSFLSKIPSVFSGSDIVQWLIKNLTIEDPVEALHLGTLMAAHGYFFPISDHVLTLKDDGTFYRFQTPYFWPSNCWEPENTDYAVYLCKRTMQNKARLELADYEAESLARLQRAFARKWEFIFMQAEAQAKVDKKRDKIERKILDSQERAFWDVHRPVPGCVNTTEVDIKKSSRMRNPHKTRKSVYGLQNDIRSHSPTHTPTPETKPPTEDELHQQIKYWQIQLDRHRLKMSKVADSLLSYTEQYVEYDPFLVPPDPSNPWLSDDTTFWELEASKEPSQQRVKRWGFGMDEALKDPVGREQFLKFLESEFSSENLRFWLAVEDLKRRPIREVPSRVQEIWQEFLAPGAPSAINLDSKSYDKTTQNVKEPGRYTFEDAQEHIYKLMKSDSYPRFIRSSAYQELLQAKRKGKTLTSKRLTSLVQSY
With B2, in assay [2], the binding entry was “binds”.
